In patent US20260055187A1 one finds binding data, which are given here for four molecules.

These are yes or no findings as the source states them, for the method shown. Binding calls can cover weak binding; strength is not graded here.

B1: PD-1 antibody 3H4 (antibody, V domains shown)
VH: QIQLQQSGPELVKPGASVKISCKASGYTFTDYYINWVKQKPGQGLEWIGWIYPGSVNTKYNEKFRGKATLTVDTSSSTAYIQLSGLTSEDTAVYFCARYSNWFFDVWGAGTAVTVS
VL: DIVMTQSPSSLSASLGERVSLTCRASQEISGYLSWLQQKPDGTIKRLIYAASTLDSGVPKRFSGSRSGSDYSLSISSLESEDFADYYCLQYASYPYTFGGGTKLEIKR
B2: PD-1 antibody 1-28 (antibody, V domains shown)
VH: EVQLVQSGAEVKKPGASVKVSCKASGYRFTSYGISWVRQAPGQGLEWMGWISAYNGNTNYAQKLQGRVTMTTDTSTNTAYMELRSLRSDDTAVYYCARDADYSSGSGYWGQGTLVTVSS
VL: SYELTQPPSVSVSPGQTARITCSGDALPKQYAYWYQQKPGQAPVMVIYKDTERPSGIPERFSGSSSGTKVTLTISGVQAEDEADYYCQSADNSITYRVFGGGTKVTVL
B3: PD-1 antibody 1-17 (antibody, V domains shown)
VH: QVQLQESGPGVVKPSGTLSLTCAISGGSIGSGGSIRSTRWWSWVRQSPGKGLEWIGEIYHSGSTNYNPSLKSRVTISLDKSRNHFSLRLNSVTAADTAVYYCARQDYGDSGDWYFDLWGKGTMVTVSS
VL: NFMLTQPHSVSESPGKTVTISCTRSSGSIASNSVQWYQQRPGSSPTTVIYEDNQRPSGVPDRFSGSIDSSSNSASLTVSGLKTEDEADYYCQSSDSSAVVFGSGTKLTVL
B4: PD-1 antibody 1-33 (antibody, V domains shown)
VH: QVQLVQSGAEVKKPGASVRVSCKASGYTLTSYYIHWVRQAPGQGLEWMGIINPRGATISYAQKFQGRVTMTRDTSTSTVYMELRNLKSEDTALYYCATAGIYGFDFDYWGRGTLVTVSS
VL: QSALTQPASVSGSPGQSITISCTGTSNDVGGYNYVSWYQHHPGKAPKLIIYDVTNRPSGVSDRFSGSKSGNTASLTISGLLAEDEGDYYCSSYTIVTNFEVLFGGGTKLTV

The target of the test is His-tagged extracellular domain of cynomolgus PD-1 (cynomolgus). Put plainly: ELISA, His-tagged extracellular domain on plate. For orientation: An ELISA detects its analyte on a solid surface through an enzyme-linked reagent.
With B1, the binding entry was “binds”.
The value for B2 was “binds”; that for B3 was “binds”; that for B4 was “binds”.
